From PubChem BioAssay AID540303 (National Center for Advancing Translational Sciences (NCATS), 2011)
About 1,000 (0.3%) of roughly 330,000 compounds were called active. The inconclusive results got no clear call from the source; some entries with a clear call stand among them for comparison. Calls follow the shape of the dose curve; as a rule, active = well fitted inhibition curve with a large enough effect; inconclusive = small, poorly fitted or top-dose-only effect; inactive = no such curve, though single readings can be large or run the other way; tested in mouse RAW 264.7 cells. Potencies of inconclusive entries are doubtful fits and often do not repeat.

Test: qHTS for Inhibitors of Cell Surface uPA Generation; also: nearly all actives have a fitted effect of over 55% in size
Settings: cell surface uPA generation assay; series mostly up to 38.3 µM; activity change, negative = inhibition: at the top concentration
Procedure, shortened: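 Murine RAW 264.7 cells are treated for 24 h with compound up to 38.3 uM final. Cell ATP, measured by ATP-Lite, remains high if blocking the uPA cascade prevents LF from reaching the cytoplasm.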
% is scaled to controls: 0 for no effect and ±100 for the full control effect; potency is read from the fitted curve at half-maximal effect.

SMILES | activity change, negative = inhibition | Potency
Cc1ccccc1C1CC(=O)Oc2cc(O)ccc21 (stereo not given) | inactive: 4.22% | –
CCNc1nc(NCC)nc(N/N=C/c2ccc(O)c(O)c2)n1 | – | inconclusive: 12.6 µM [inhibitor, partial curve, poor fit]
COc1ccccc1/C=N/NC(=O)CNC(=O)c1ccccc1 | inactive: 4.25% | –
CC(C)C[C@@H](CN1CCCC1CN1C(=S)NC[C@@H]1Cc1ccc(O)cc1)N1C[C@H](Cc2ccc(O)cc2)N(CC2CCCCC2)C1=S (stereo not given in full) | – | inconclusive: 28.2 µM [inhibitor, single point]
O=C(NN=Cc1ccc(O)cc1O)c1ccccc1NS(=O)(=O)c1cccs1 | – | inconclusive: 8.91 µM [inhibitor, single point]
N=c1ccn(Cc2ccc(F)cc2)cc1 | – | inconclusive: 7.94 µM [inhibitor, single point]
CCCCCC(=O)N1CC2(CC(c3cccc(NC(=O)CC(c4ccccc4)c4ccccc4)c3)=NO2)C[C@@H]1C(N)=O (stereo not given in full) | – | inconclusive: 12.6 µM [inhibitor, single point]
COC(=O)Nc1ccc(S(=O)(=O)N2CCCc3cccc(O)c32)cc1 | – | inconclusive: 12.6 µM [inhibitor, partial curve, poor fit]
Cn1c(SSc2ccc(-c3cccnc3)n2C)ccc1-c1cccnc1 | inactive: -14.2% | –
Cc1ccc2nc(Cl)c(/C=C/C(=O)c3ccco3)cc2c1 | inactive: -2.36% | –
Cc1ccc(NS(=O)(=O)c2cccc(C(=O)Nc3cc(C)on3)c2)cc1 | – | inconclusive: 6.31 µM [inhibitor, partial curve, poor fit]
O=C(N/N=C/c1cccnc1)c1ccc2c(c1)OCO2 | – | inconclusive: 5.62 µM [inhibitor, partial curve, poor fit]
CN(C)C(CNC(=O)c1ccc(NS(=O)(=O)c2ccc(F)c(F)c2)cc1)c1ccccc1 (stereo not given) | inactive: -2% | –
O=C(COC(=O)/C=C/c1cccc(F)c1)NC(=O)NCc1ccccc1 | – | inconclusive: 0.0794 µM [inhibitor, full curve, poor fit]
NC(=O)c1ccccc1NC(=O)/C=C/c1ccc(Cl)cc1 | – | inconclusive: 2.82 µM [inhibitor, partial curve]
Cc1oc(-c2cccc(Cl)c2)nc1CS(=O)(=O)CC(=O)NCCCN1CCOCC1 | inactive: -0.574% | –
O=C1CC(/C=C/c2ccc(Cl)cc2)=Nc2ccccc2N1 | – | inconclusive: 7.94 µM [inhibitor, partial curve, poor fit]
O=C(CCCn1c(=O)c2cccn2c2cccnc21)NCCc1ccc(Cl)cc1 | inactive: 4.28% | –
Cc1ccc(N2C(=O)c3cccc4c([N+](=O)[O-])ccc(c34)C2=O)c2cccnc12 | – | inconclusive: 0.501 µM [inhibitor, full curve, poor fit]
CCCOc1ccc(C(=O)Nc2ccc(N(C)C)cc2)cc1 | – | inconclusive: 7.08 µM [inhibitor, partial curve]
C=CCNC(=O)C(C#N)c1nc2ccccc2nc1N1CCN(Cc2ccccc2)CC1 (stereo not given) | inactive: -1.14% | –
Cc1ccccc1C(=O)Nc1ccc(Br)cn1 | – | inconclusive: 12.6 µM [inhibitor, partial curve, poor fit]

SMILES | activity change, negative = inhibition | Potency
COc1ccc(NC(=O)C2CCCN(c3ncccn3)C2)cc1 (stereo not given) | inactive: -0.55% | –
COc1cccc(-c2nc3c(c(=O)[nH]c(=O)n3Cc3ccccc3)n2CCO)c1OC(F)F | inactive: -3.54% | –
COc1ccc(/C=C2\C(=O)c3ccccc3OC2c2ccccc2)cc1 (stereo not given) | – | inconclusive: 5.01 µM [inhibitor, partial curve, poor fit]
COc1ccc(-c2c(-c3ccc4c(c3)OCO4)noc2C)cn1 | – | inconclusive: 7.08 µM [inhibitor, single point]
COc1ccc(NC(=O)c2c(C)nn(Cc3ccccc3)c2Cl)cc1S(=O)(=O)N1CCOCC1 | inactive: -16.8% | –
CNc1nc(-c2ccc3c(c2)CCN3C(=O)c2ccccc2F)cs1 | – | inconclusive: 8.91 µM [inhibitor, partial curve, poor fit]
O=C(Cn1c(=O)n(-c2cccc(C(F)(F)F)c2)c(=O)c2sccc21)NCC1CCCO1 (stereo not given) | – | inconclusive: 2.82 µM [inhibitor, full curve, poor fit]
COc1ccc(C(=O)NCCc2cn3ccc(C)cc3n2)cc1 | – | inconclusive: 0.0126 µM [inhibitor, full curve, poor fit]
CN(C)C1=NC[C@H](Cc2ccccc2)N1CCCCc1ccccc1 | – | inconclusive: 8.91 µM [inhibitor, single point]
NCCCNc1nc(N)c([N+](=O)[O-])c(NC2CCCCC2)n1 | – | inconclusive: 5.01 µM [inhibitor, single point]
O=C(Nc1ccccc1Oc1ccccc1)c1cc([N+](=O)[O-])ccc1Cl | – | inconclusive: 10 µM [inhibitor, partial curve, poor fit]
C/C(=N\NC(=O)CNC(=O)c1cccs1)c1ccc(Cl)c(Cl)c1 | inactive: -3.59% | –
CC[C@H](NC(=O)c1c(C)c(-c2ccccc2)nc2ccccc12)c1ccccc1 | inactive: 3.51% | –
O=[N+]([O-])c1ccc(Sc2nc3ccccc3o2)c([N+](=O)[O-])c1 | – | inconclusive: 3.55 µM [inhibitor, partial curve]
O=C(COC(=O)/C=C/c1cccc(C(F)(F)F)c1)NCCN1C(=O)CSC1=O | – | inconclusive: 1 µM [inhibitor, full curve, poor fit]
CN(C)C1=NC[C@H](Cc2ccccc2)N1CC1CCCCC1 | – | inconclusive: 3.98 µM [inhibitor, partial curve]
COc1ccc2c(c1)oc(=O)c1c3ccccc3[nH]c21 | – | inconclusive: 2.51 µM [inhibitor, full curve, poor fit]
CC(=O)c1ccc(N2CCN(S(=O)(=O)c3cccc4nonc34)CC2)cc1 | – | inconclusive: 10 µM [inhibitor, partial curve, poor fit]
C=CCC[C@H](Cc1ccc(F)cc1)C(=O)OC[C@@H](NC(=O)[C@@H](CC=C)CC(=O)N[C@H](CO)Cc1ccccc1)C(C)(C)C | – | inconclusive: 14.1 µM [inhibitor, partial curve, poor fit]
O=C(N/N=C/c1ccc(O)c(O)c1)C1CC1 | – | inconclusive: 7.94 µM [inhibitor, single point]
O=C(Nc1ccc(S(=O)(=O)N2CCOCC2)cc1)c1cc(-c2cc(Cl)ccc2O)n[nH]1 | – | inconclusive: 8.91 µM [inhibitor, single point]
O=C(CCC(=O)c1ccccc1)Nc1ccc(C(=O)O)cc1 | – | inconclusive: 56.2 µM [inhibitor, partial curve, poor fit]

5 records drawn at random from those above:
SMILES | activity change, negative = inhibition | Potency
O=C(CCCn1c(=O)c2cccn2c2cccnc21)NCCc1ccc(Cl)cc1 | inactive: 4.28% | –
O=C(Nc1ccccc1Oc1ccccc1)c1cc([N+](=O)[O-])ccc1Cl | – | inconclusive: 10 µM [inhibitor, partial curve, poor fit]
COc1ccc(C(=O)NCCc2cn3ccc(C)cc3n2)cc1 | – | inconclusive: 0.0126 µM [inhibitor, full curve, poor fit]
NC(=O)c1ccccc1NC(=O)/C=C/c1ccc(Cl)cc1 | – | inconclusive: 2.82 µM [inhibitor, partial curve]
CNc1nc(-c2ccc3c(c2)CCN3C(=O)c2ccccc2F)cs1 | – | inconclusive: 8.91 µM [inhibitor, partial curve, poor fit]

The results go on.

SMILES | activity change, negative = inhibition | Potency
O=C(CCc1ccccc1)n1nc(-c2ccco2)nc1SCc1ccccc1 | – | inconclusive: 11.2 µM [inhibitor, single point]
Cc1ccc(NC(=O)C(Cc2ccccc2)N2C(=O)C3C4CCC(C4)C3C2=O)cc1Cl (stereo not given) | inactive: -16.3% | –
Cc1ccc(CNS(=O)(=O)c2c(C)nc3scc(C)n3c2=O)cc1 | inactive: 7.24% | –
CN(Cc1ccc(OCC(O)CN2CCCCC2)cc1)Cc1ccnc2ccccc12 (stereo not given) | – | inconclusive: 10 µM [inhibitor, single point]
COCCn1c(SCC(=O)Nc2ccc(NC(=O)c3ccco3)c(OC)c2)nc2ccccc2c1=O | inactive: -5.21% | –
Cc1nc(-c2cccc(S(=O)(=O)N3CC(C)OC(C)C3)c2)cs1 (stereo not given) | inactive: -0.994% | –
CN(C)c1ccc(/C=C2\N=C(C(C)(C)C)OC2=O)cc1 | – | inconclusive: 12.6 µM [inhibitor, single point]
CC(/C=C/c1ccco1)=N\NC(=O)CNc1cccc(C)c1 | – | inconclusive: 31.6 µM [inhibitor, single point]
CCOC(=O)C1=C(c2ccccc2)N=c2s/c(=C\c3cccc(O)c3)c(=O)n2C1c1cccs1 (stereo not given) | inactive: -11.6% | –
COc1ccc(-c2c(C)cc3oc(=O)cc(-c4ccccc4)c3c2C)cc1C=O | – | inconclusive: 28.2 µM [inhibitor, single point]
CC1Cc2nc(SCC(=O)N3CCN(c4ccccc4)CC3)n(CCc3ccccc3)c(=O)c2S1 (stereo not given) | – | inconclusive: 12.6 µM [inhibitor, single point]
Cc1cccc(NC(=O)CCCN=C2NS(=O)(=O)c3ccccc32)c1C | – | inconclusive: 5.01 µM [inhibitor, partial curve, poor fit]
CC(C)=CCC/C(C)=C/CNC(=O)C[C@H]1C[C@H](C(=O)N2CCCCC2)[C@@]2(C)c3[nH]c4cc(CCC(=O)N(C)C)ccc4c3CCN2C1=O | – | inconclusive: 11.2 µM [inhibitor, partial curve, poor fit]
O=C(CSc1nnc(C2CC2)n1-c1ccccc1)N1CCNC1=O | – | inconclusive: 12.6 µM [inhibitor, single point]
CCN(C(=O)COC(=O)c1oc2ccccc2c1C)c1c(N)n(Cc2ccccc2)c(=O)[nH]c1=O | inactive: 11.7% | –
C[C@@H](NC(=O)c1[nH]cnc1C(=O)Nc1ccccc1)c1ccccc1 | – | inconclusive: 14.1 µM [inhibitor, single point]
COC(=O)[C@@]1(Cc2ccc(OC)cc2)[C@@H]2C(=CC(=O)[C@H]2CC(=O)C(=O)N(C)C)CN1C(=O)c1ccccc1 | – | inconclusive: 10 µM [inhibitor, single point]
COc1ccc(N=C2C(=O)Nc3ccc(C)c(Br)c32)cc1 | – | inconclusive: 10 µM [inhibitor, partial curve, poor fit]
O=C(Nc1ccccn1)c1ccc(NC(=O)c2ccco2)cc1 | inactive: -2.21% | –
C=CCOc1cccc(/C=N/NC(=O)CN2CCCCC2)c1 | inactive: 4.05% | –
CCc1cccc2cc3c(N)c(C(=O)Nc4ccc(S(=O)(=O)N5CCCC5)cc4)sc3nc12 | inactive: -4.95% | –
